Laboratory results: PubChem BioAssay AID504804 (Drosophila RNAi Screening Center, 2011)

Screen: 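dsRNAs that improve Kc cell survival under doxorubicin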 (primary screen)
Cells: Drosophila Kc cells
Reagents: long dsRNA against Drosophila genes, 0.5 µg dsRNA per well
Duration: 96 h (48 h knock-down, then 48 h drug)
Treatment: doxorubicin 5 µg/ml for 48 h, added 48 h after dsRNA
Detection: 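Viability measured as cellular ATP by luminescence after 48 h knock-down then 48 h doxorubicin at 5 µg/ml; unnormalised plate counts for each replicate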
Scale: raw ATP luminescence: higher = more viable cells, protection from doxorubicin
Active means: 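z-score of 2 or more over plate mean in both duplicates, retained only when retests and separate dsRNAs confirm the protection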
In all, the deposit lists about 19,000 reagents; this is an unselected part of those that have a named target and a result. In the full data, 47 (0.25%) are marked active. 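Signals are raw, not normalised; exact z-scores behind calls not deposited; actives needed confirmation, so some wells reaching 2 SD are inactive.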 Reagents against one gene are numbered here. Names joined by + are all predicted targets of the reagent.

gene knocked down	dsRNA no.	raw ATP luminescence, replicate 1	raw ATP luminescence, replicate 2	call
CG42241 (retired record)	1	1.01e5	1.00e5	inactive
Prosalpha1R + Prosalpha1	1	63467	60240	inactive
Rpt6R (Regulatory particle triple-A ATPase 6-related)	1	52770	42430	inactive
CG14257	1	69820	42550	inactive
RpL11 (Ribosomal protein L11)	1	32600	60153	inactive
Hinfp (Histone H4 transcription factor)	1	42390	41380	inactive
CG15210	1	3.67e5	3.96e5	inactive
Eglp2 (Entomoglyceroporin 2)	1	74350	70593	inactive
CG17362	1	41237	32527	inactive
CG4770	1	55960	73920	inactive
nesd (nessun dorma)	1	94613	73910	inactive
Cipc (Clock interacting protein circadian)	1	59410	68150	inactive
Alp13 (Alkaline phosphatase 13)	1	51837	47530	inactive
CG13033	1	54700	44067	inactive
CG33159	1	2.03e5	2.36e5	inactive
Elp1 (Elongator complex protein 1)	1	51280	30893	inactive
trk (trunk)	1	39890	70210	inactive
Mpv17 (Mitochondrial inner membrane protein MPV17)	1	50110	67080	inactive
Edg78E (Ecdysone-dependent gene 78E)	1	56343	53900	inactive
DEF8 (differentially expressed in FDCP 8 homolog)	1	34447	39890	inactive
CG6959	1	58760	49580	inactive
Trf (TBP-related factor)	1	46467	98570	inactive
CycT (Cyclin T)	1	37730	42917	inactive
CG4021	1	58293	62187	inactive
Hus1-like	1	74070	59717	inactive
GstD10 (Glutathione S transferase D10)	1	58283	49203	inactive
Inx6 (Innexin 6)	1	2.49e5	2.95e5	inactive
side-IV + CG17025 (retired record)	1	73180	80920	inactive
bol (boule)	1	1.60e5	1.52e5	inactive
bol (boule)	2	64710	71243	inactive
bol (boule)	3	54560	85437	inactive
CG14860	1	84900	90130	inactive
Vha100-3 (Vacuolar H[+] ATPase 100kD subunit 3)	1	1.60e5	1.43e5	inactive
TotB (Turandot B)	1	59100	91240	inactive
CG2100	1	80283	31543	inactive
CG33263	1	56697	74163	inactive
CG30349	1	36923	66040	inactive
CG30349	2	43190	81440	inactive
CG14160	1	55113	59537	inactive
alc (alicorn)	1	54190	74320	inactive
Rpt2 (Regulatory particle triple-A ATPase 2)	1	35957	47797	inactive
loh (lonely heart)	1	2.95e5	2.83e5	inactive
loh (lonely heart)	2	29840	73297	inactive
Rrp47 (Ribosomal RNA processing 47)	1	3.16e5	2.56e5	inactive
Ilp2 (Insulin-like peptide 2)	1	39683	38870	inactive
Mob3 (MOB kinase activator 3)	1	59350	52610	inactive
CG42535	1	1.91e5	1.75e5	inactive
CG14615	1	3.05e5	2.79e5	inactive
CG13847	1	23507	26503	inactive
Ski6	1	50480	65880	inactive
CG11200	1	51360	57333	inactive
pdm2 (POU domain protein 2)	1	69253	73987	inactive
pdm2 (POU domain protein 2)	2	64193	79670	inactive
pdm2 (POU domain protein 2)	3	78730	76573	inactive
spdi (split discs)	1	40840	52060	inactive
mRpL19 (mitochondrial ribosomal protein L19)	1	62283	66123	inactive
CG16743	1	35770	64550	inactive
CG14448	1	61640	53800	inactive
CG32085	1	81073	63437	inactive
CG32085	2	64320	56783	inactive
CG32085	3	60030	62013	inactive
CG9759	1	48457	27170	inactive
Skp2 + CG1103	1	20623	20860	inactive
CG12231	1	3.01e5	2.93e5	inactive
CG30334	1	71977	93587	inactive
CG7083	1	75397	72530	inactive
lncRNA:sphinx (long non-coding RNA:sphinx)	1	45100	57390	inactive
kl-2 (male fertility factor kl2)	1	2.91e5	2.63e5	inactive
CG6753	1	58553	61580	inactive
Hydr1 (alpha/beta hydrolase 1)	1	2.04e5	2.23e5	inactive
tap (target of Poxn)	1	61107	54213	inactive
Ist1	1	56190	39830	inactive
CG13814 (retired record)	1	67720	66787	inactive
Npc2f (Niemann-Pick type C-2f)	1	53247	51943	inactive
Tm1 (Tropomyosin 1)	1	2.26e5	2.07e5	inactive
Tm1 (Tropomyosin 1)	2	2.62e5	2.10e5	inactive
Tm1 (Tropomyosin 1)	3	48580	18963	inactive
Vha100-2 (Vacuolar H[+] ATPase 100kD subunit 2)	1	47170	47440	inactive
RpL3 (Ribosomal protein L3)	1	35093	31203	inactive
Sgs7 (Salivary gland secretion 7)	1	62940	62140	inactive
CG18213	1	80630	89510	inactive
nw (narrow)	1	74777	63643	inactive
CG4278	1	76540	55343	inactive
Tmem43 (Transmembrane protein 43)	1	65127	74727	inactive
